Measured values as given in PubChem BioAssay AID2685 (National Center for Advancing Translational Sciences (NCATS), 2010).
The other results are listed elsewhere or left out. Further columns of the screen follow, without active or inactive calls. Most of these compounds were active or inconclusive in the main read-out, so they are no random draw. Potencies come from curve fits of mixed quality, noted in brackets.

Experiment: qHTS Assay for Lipid Storage Modulators in Drosophila S3 Cells;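 for cell number change: cells counted by Cell Tracker Red CMTPX staining in the red channel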
Settings: BODIPY lipid droplet fluorescence, 18-24 h; for cell number change: measured here: cell count max response, cells fed with added oleic acid
Summary of the method: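 Drosophila S3 cells loaded with oleic acid (400 uM, as added) and compounds at several concentrations; lipid droplets imaged by 488-nm laser-scanning cytometry, 500–530 nm intensity and object ratio to cell channel. Percent activity normalized to 20 uM Triacsin C.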

[1] = measured here: lipid fluorescence (Fed channel) AC50, cells fed with added oleic acid
[2] = measured here: cell number channel AC50, cells fed with added oleic acid

| Structure (SMILES) | cell number change [%] | AC50 [1] | AC50 [2] |
| --- | --- | --- | --- |
| Cc1nn(Cc2ccccc2)c(=O)n1N(C)c1ncc(C(F)(F)F)cc1Cl | 20.1 | 29.1 µM [rising, single point] | – |
| Cc1cc(C)nc(N/N=C/c2ccc(N3CCOCC3)cc2)n1 | 42 | 29.1 µM [rising, partial curve, poor fit] | 29.1 µM [rising, partial curve, poor fit] |
| CCOc1ncccc1C(=O)Nc1cc(S(=O)(=O)N2CCCCCC2)ccc1OC | 16.6 | – | – |
| CN1C=CC=C/C1=C1\SC(=S)N(N)C1=O | 14.8 | – | – |
| CN(CCOc1ccccc1)c1ccc(S(=O)(=O)N2CCCCC2)cn1 | 16.3 | 5.8 µM [rising, partial curve] | – |
| COCc1c(C(=O)N2CCN(CCOc3ccccc3)CC2)oc2ccccc12 | -17.2 | 3.26 µM [rising, full curve, poor fit] | – |
| CCOC(=O)C1=C(CC)Nc2ccccc2N=C1NC(=O)c1cccc(S(=O)(=O)N2CCOCC2)c1 | 5.57 | 0.184 µM [rising, full curve, poor fit] | – |
| COc1ccc(CC(=O)Nc2ccc(S(=O)(=O)N(C)C3CCN(C)CC3)cc2)cc1 | -6.35 | 29.1 µM [rising, partial curve, poor fit] | – |
| O=C(CCl)N1CCN(S(=O)(=O)c2ccc3c(c2)CCC3)CC1 | 13.3 | 29.1 µM [falling, partial curve, poor fit] | – |
| CC(NC(=O)COC(=O)c1cc2ccccc2cc1O)c1ccccc1 (centres undefined) | -34.8 | – | 13 µM [falling, partial curve, poor fit] |
| CC(C)(C)c1ccc(C(=O)Nc2cccc3c(=O)[nH][nH]c(=O)c23)cc1 | – | 29.1 µM [rising, single point] | – |
| CN(CC(=O)Nc1ccc(Cl)c(Cl)c1)C1CCCCC1 | -16.8 | 29.1 µM [falling, single point] | – |
| COC(=O)c1ccc(N2CCCCC2)c(NC(=O)c2ccco2)c1 | 11.1 | 2.06 µM [rising, partial curve, poor fit] | 0.164 µM [rising, full curve, poor fit] |
| CC(=O)c1ccc(N(C(=O)CNC(=O)c2ccco2)C(C(=O)NC2CCCC2)c2ccco2)cc1 (centres undefined) | 7.08 | – | – |
| CCCN1CCc2c(sc3nc(SC)n(-c4ccccc4)c(=O)c23)C1 | 53.9 | 29.1 µM [rising, single point] | 13 µM [rising, partial curve] |
| O=C(O)c1ccc(-n2cccc2/C=C2/SC(=O)N(CC(=O)N3CCCC3)C2=O)cc1 | 13.5 | – | – |
| CN1c2ccccc2C(=O)/C(=C\Nc2ccc(F)cc2)S1(=O)=O | -6.98 | 0.651 µM [falling, full curve, poor fit] | – |
| CCCCN(CC)CCNC(=O)c1cc2c(=O)[nH]c3ccccc3c2s1 | 35.5 | 16.4 µM [rising, partial curve] | 2.06 µM [rising, full curve] |
| CC(O)CNCCNCc1cccs1 (centres undefined) | -5.54 | – | 0.731 µM [rising, single point] |
| CN1CCN(c2ccc(CNS(=O)(=O)Cc3cccc(C(F)(F)F)c3)cc2)CC1 | -25.5 | 23.1 µM [falling, single point] | – |

Of the compounds above, these contain an NH in an aromatic ring.

| Structure (SMILES) | cell number change [%] | AC50 [1] | AC50 [2] |
| --- | --- | --- | --- |
| CC(C)(C)c1ccc(C(=O)Nc2cccc3c(=O)[nH][nH]c(=O)c23)cc1 | – | 29.1 µM [rising, single point] | – |
| CCCCN(CC)CCNC(=O)c1cc2c(=O)[nH]c3ccccc3c2s1 | 35.5 | 16.4 µM [rising, partial curve] | 2.06 µM [rising, full curve] |

The list continues:

| Structure (SMILES) | cell number change [%] | AC50 [1] | AC50 [2] |
| --- | --- | --- | --- |
| COc1cc(CN2CCNC(=O)C2CC(=O)N(Cc2nccn2C)C(C)C)cc(OC)c1 (centres undefined) | -15.3 | 0.731 µM [falling, full curve] | 0.82 µM [falling, full curve, poor fit] |
| Cc1nc(SCC(=O)NCCc2ccc(Cl)cc2)nc(C)c1C | -15.5 | 0.231 µM [rising, single point] | – |
| CC(C)OC(=O)CC(=O)CSc1nc(-c2ccc(F)cc2)cc(-c2ccccc2)c1C#N | 12.3 | – | – |
| Cc1cc(NC(=O)c2cc3n(n2)C(C(F)(F)F)CC(c2ccco2)N3)n(-c2ccccc2)n1 (centres undefined) | – | 0.731 µM [rising, partial curve] | 0.411 µM [rising, full curve] |
| O=C(c1cc2c(s1)CCCCC2)N1CCN(c2ncccn2)CC1 | 7.74 | 6.51 µM [rising, single point] | – |
| COc1ccc(-c2nn(-c3ccccc3)cc2C(=O)NC(=S)N2CCOCC2)cc1OC | -23.1 | 0.0206 µM [falling, full curve, poor fit] | 0.0116 µM [falling, full curve, poor fit] |
| CCOC(=O)c1ccc(NC(=O)Nc2ccc(OC)c(OC)c2)cc1 | – | 3.26 µM [rising, partial curve] | – |
| COc1ccc(C(=O)/C=C/C(=O)N(Cc2ccccc2)C(C(=O)NC2CCCCC2)c2ccncc2)c(O)c1 (centres undefined) | -40.6 | 0.58 µM [rising, full curve, poor fit] | 0.366 µM [falling, full curve] |
| O=C(Nc1cccc(Oc2ccc3c(c2)C(=O)NC3=O)c1)c1cccs1 | -25.1 | 11.6 µM [falling, partial curve] | – |
| CCOC(=O)c1ccc(NCc2ccc3c(c2)OCO3)cc1 | -26.3 | 20.6 µM [falling, partial curve, poor fit] | – |
| O=S(=O)(c1cc(Cl)ccc1Cl)N1CCN(c2ccccn2)CC1 | 8.97 | – | – |
| O=[N+]([O-])c1cc(S(=O)(=O)c2ccc(N3CCCCC3)c([N+](=O)[O-])c2)ccc1N1CCCCC1 | – | 6.51 µM [falling, partial curve] | – |
| O=C(CCn1c(=S)[nH]c2cc3c(cc2c1=O)OCO3)NCc1ccc(Cl)cc1 | 17.3 | – | 0.0058 µM [rising, full curve, poor fit] |
| COc1ccc(N2C(=O)C(CN3CCN(C)CC3)C2c2ccccc2)cc1 (centres undefined) | 21.3 | 20.6 µM [rising, single point] | – |
| CC(C)Oc1ccc(/C=N/NC(=O)C2CCCN2S(=O)(=O)c2ccc(Cl)cc2)cc1 (centres undefined) | -23.9 | 0.146 µM [rising, full curve, poor fit] | – |
| Cc1n[nH]c(C)c1N=Nc1ccc(Br)cc1 | 54.4 | – | 0.92 µM [rising, full curve] |
| Cc1csc(N(C(=O)c2cccc(S(=O)(=O)N(C)C)c2)c2ccccc2)n1 | -30.7 | – | 29.1 µM [falling, single point] |
| CC(=O)c1cccc(NS(=O)(=O)c2ccc(-c3cnc(C4CC4)o3)cc2)c1 | -4.72 | 29.1 µM [falling, single point] | – |
| O=C(Nc1ccc(F)cc1)c1cnc(-c2ccccc2)nc1-c1ccccc1 | -104 | – | 29.1 µM [falling, single point] |
| Fc1ccc(NCc2cccnc2)cc1 | 51.2 | – | 6.51 µM [rising, partial curve] |

| Structure (SMILES) | cell number change [%] | AC50 [1] | AC50 [2] |
| --- | --- | --- | --- |
| C=CCNc1oc(-c2ccc(OCC)cc2)nc1C#N | – | – | 1.16 µM [rising, partial curve] |
| Cc1cc2c(cc1S(=O)(=O)N1CC(C)CC(C)C1)OCC(=O)N2 (centres undefined) | -11.5 | – | – |
| COCCn1c(SCC(=O)Nc2cccc(S(N)(=O)=O)c2)nc2ccccc21 | -8.33 | 4.61 µM [rising, partial curve, poor fit] | – |
| Brc1cccc(CNCc2ccncc2)c1 | 4.67 | – | – |
| Cc1cccc(S(=O)(=O)N(CC(=O)Nc2ccccc2C)Cc2ccco2)c1 | 18.6 | – | 0.0517 µM [rising, full curve, poor fit] |
| CC1=C(c2ccc(C)cc2)S(=O)(=O)N(CC(=O)O)C1=O | -30.6 | 10.3 µM [falling, partial curve] | 0.00517 µM [falling, full curve, poor fit] |
| O=C(CNC(=O)c1ccccc1F)NCCOc1ccccc1Cl | 23.6 | 29.1 µM [rising, single point] | 0.461 µM [falling, full curve] |
| Cn1ccnc1CC(O)(c1ccccc1)c1ccccc1 | 32.1 | 0.82 µM [falling, single point] | – |
| Cc1cc(Cn2nnc(-c3ccc(Br)cc3)n2)cc(C)c1O | -79.7 | 2.06 µM [rising, partial curve] | 18.4 µM [falling, partial curve] |
| COc1ccc(C(=O)c2ccccc2)c(OCC(=O)N(C)C)c1 | 18.3 | 4.11 µM [rising, full curve, poor fit] | – |
| COc1cccc(/C=N/NC(=O)c2ccc(-c3ccccc3)cc2)c1O | -34.4 | 0.731 µM [rising, full curve, poor fit] | 5.8 µM [falling, full curve, poor fit] |
| C/C(=N\NC(=O)C(N)=O)c1ccc(O)cc1O | – | 0.00517 µM [falling, full curve, poor fit] | 0.00461 µM [falling, full curve, poor fit] |
| C[C@H](NC(=O)c1nc[nH]c1C(=O)N1CCN(c2ccccc2)CC1)C(=O)OCc1ccccc1 | -6.59 | – | – |
| CSc1oc(-c2ccccc2)nc1S(=O)(=O)c1ccc(C)cc1 | – | 3.66 µM [rising, single point] | 4.61 µM [rising, single point] |
| Cc1cccc(N2CCN(C(=O)CNC(=O)c3ccccc3)CC2)c1C | 17.9 | – | – |
| O=S(=O)(Nc1ccc2c(c1)OCO2)c1ccc(Br)s1 | -19.1 | 14.6 µM [falling, single point] | – |
| CCNC(=O)N1CCCC(C(=O)c2ccc3cc(OC)ccc3c2)C1 (centres undefined) | -33.9 | 8.2 µM [falling, partial curve, poor fit] | 16.4 µM [falling, partial curve] |
| Cc1nn(-c2ccccc2)c(C)c1NC(=O)COC(=O)C1CC(=O)N(CCc2ccccc2)C1 (centres undefined) | – | 0.461 µM [falling, single point] | 6.51 µM [rising, partial curve, poor fit] |
